This is an account of results in the supplement of paper PMC10849652.

By UniProt entry, the sequences of proteins in these tests, tags left out. Where a name states a change or a piece, a line headed by the entry shows the natural chain unless it says otherwise.
UniProt Q9Y4A5, whole entry, looked up: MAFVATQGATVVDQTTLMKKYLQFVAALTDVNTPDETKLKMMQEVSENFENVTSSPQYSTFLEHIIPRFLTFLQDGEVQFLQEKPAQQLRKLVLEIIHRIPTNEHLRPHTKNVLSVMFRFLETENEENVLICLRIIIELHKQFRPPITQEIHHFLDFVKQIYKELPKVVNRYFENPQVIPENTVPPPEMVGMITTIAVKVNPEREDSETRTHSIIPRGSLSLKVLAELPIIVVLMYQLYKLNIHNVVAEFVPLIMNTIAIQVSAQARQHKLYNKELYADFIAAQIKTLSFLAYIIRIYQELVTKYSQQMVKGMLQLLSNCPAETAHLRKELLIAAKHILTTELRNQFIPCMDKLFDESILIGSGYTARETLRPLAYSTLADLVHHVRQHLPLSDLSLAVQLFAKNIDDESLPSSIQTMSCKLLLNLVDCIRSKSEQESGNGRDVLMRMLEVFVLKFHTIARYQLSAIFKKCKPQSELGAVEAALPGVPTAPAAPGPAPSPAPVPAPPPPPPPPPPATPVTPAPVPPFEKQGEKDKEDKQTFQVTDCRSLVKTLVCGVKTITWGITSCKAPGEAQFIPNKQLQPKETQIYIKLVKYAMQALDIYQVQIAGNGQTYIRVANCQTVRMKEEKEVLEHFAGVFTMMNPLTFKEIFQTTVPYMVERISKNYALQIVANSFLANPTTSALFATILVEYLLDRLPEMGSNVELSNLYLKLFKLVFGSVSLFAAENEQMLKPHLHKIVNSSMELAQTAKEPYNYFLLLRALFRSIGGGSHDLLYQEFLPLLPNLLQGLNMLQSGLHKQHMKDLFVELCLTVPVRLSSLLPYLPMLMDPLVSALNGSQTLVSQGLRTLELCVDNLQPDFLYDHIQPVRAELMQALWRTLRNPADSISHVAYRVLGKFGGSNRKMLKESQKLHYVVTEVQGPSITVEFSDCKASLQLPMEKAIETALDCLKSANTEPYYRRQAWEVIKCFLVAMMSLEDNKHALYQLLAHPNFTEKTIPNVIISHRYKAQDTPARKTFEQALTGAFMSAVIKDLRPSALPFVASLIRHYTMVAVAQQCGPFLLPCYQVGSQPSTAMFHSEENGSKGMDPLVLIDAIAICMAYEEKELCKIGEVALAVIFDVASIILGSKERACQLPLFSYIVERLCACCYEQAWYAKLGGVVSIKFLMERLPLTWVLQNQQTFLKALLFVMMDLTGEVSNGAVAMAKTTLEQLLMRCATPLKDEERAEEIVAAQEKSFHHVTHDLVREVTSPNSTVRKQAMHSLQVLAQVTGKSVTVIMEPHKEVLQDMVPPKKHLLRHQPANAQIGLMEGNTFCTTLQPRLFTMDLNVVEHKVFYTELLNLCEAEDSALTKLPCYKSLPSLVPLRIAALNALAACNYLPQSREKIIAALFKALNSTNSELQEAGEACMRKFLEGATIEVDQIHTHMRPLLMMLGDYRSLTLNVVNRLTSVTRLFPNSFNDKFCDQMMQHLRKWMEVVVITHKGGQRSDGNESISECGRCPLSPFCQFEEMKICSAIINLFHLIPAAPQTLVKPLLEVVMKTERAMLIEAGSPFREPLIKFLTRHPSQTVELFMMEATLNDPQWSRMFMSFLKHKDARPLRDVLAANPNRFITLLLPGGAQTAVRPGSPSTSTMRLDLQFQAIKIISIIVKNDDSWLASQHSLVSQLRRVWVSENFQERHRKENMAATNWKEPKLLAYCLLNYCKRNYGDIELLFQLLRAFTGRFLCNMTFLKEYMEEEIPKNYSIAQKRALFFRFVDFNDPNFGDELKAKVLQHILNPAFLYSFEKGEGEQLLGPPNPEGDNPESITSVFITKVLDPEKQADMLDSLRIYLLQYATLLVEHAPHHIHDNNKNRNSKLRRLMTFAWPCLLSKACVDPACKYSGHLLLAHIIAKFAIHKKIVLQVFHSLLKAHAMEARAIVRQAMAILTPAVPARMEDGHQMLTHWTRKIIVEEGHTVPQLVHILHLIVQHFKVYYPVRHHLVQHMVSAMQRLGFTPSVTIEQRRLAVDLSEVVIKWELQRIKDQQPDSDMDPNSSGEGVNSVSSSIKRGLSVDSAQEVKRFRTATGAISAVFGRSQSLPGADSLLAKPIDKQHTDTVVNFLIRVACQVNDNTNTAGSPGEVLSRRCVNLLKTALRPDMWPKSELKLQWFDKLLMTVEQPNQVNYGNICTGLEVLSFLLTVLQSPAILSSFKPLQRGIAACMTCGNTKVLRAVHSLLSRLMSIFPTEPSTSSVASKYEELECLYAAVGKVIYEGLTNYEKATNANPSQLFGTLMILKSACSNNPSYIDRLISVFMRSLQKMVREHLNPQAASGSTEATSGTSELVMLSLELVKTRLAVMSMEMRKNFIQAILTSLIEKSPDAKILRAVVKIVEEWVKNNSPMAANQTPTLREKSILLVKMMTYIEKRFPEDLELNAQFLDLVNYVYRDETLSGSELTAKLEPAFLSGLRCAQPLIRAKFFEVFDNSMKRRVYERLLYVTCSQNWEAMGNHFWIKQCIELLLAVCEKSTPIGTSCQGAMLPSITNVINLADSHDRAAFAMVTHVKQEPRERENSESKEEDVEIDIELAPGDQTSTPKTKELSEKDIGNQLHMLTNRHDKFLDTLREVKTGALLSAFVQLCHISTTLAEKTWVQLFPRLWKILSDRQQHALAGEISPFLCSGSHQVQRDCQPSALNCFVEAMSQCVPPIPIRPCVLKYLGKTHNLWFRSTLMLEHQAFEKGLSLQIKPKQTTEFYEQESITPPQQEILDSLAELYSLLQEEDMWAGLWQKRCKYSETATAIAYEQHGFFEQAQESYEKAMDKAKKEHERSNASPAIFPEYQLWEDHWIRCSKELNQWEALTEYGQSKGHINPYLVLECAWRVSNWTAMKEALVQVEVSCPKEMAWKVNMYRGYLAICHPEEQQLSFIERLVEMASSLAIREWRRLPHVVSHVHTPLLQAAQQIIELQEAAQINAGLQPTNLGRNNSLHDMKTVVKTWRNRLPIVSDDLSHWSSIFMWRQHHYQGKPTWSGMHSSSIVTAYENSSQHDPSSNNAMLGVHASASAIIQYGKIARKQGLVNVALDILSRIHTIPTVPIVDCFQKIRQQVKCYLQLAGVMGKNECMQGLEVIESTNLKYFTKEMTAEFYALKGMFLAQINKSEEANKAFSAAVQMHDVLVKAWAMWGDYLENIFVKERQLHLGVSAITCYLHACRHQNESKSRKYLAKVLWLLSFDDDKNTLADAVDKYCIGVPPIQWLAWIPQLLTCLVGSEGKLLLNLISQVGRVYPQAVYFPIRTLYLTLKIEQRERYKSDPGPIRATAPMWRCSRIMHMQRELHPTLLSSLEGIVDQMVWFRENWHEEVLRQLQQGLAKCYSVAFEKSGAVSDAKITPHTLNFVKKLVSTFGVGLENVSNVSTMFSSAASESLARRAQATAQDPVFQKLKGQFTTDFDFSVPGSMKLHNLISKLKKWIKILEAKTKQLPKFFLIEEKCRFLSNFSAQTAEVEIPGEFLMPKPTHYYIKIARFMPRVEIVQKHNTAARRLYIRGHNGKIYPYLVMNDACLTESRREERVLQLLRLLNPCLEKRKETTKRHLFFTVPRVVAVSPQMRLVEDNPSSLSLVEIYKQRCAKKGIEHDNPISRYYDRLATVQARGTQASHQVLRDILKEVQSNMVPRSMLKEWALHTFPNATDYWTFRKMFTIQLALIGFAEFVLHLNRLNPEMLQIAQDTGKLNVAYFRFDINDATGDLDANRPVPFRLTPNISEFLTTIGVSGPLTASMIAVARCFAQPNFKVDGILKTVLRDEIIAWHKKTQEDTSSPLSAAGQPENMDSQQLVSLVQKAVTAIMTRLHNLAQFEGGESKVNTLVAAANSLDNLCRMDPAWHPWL
UniProt Q96Q11: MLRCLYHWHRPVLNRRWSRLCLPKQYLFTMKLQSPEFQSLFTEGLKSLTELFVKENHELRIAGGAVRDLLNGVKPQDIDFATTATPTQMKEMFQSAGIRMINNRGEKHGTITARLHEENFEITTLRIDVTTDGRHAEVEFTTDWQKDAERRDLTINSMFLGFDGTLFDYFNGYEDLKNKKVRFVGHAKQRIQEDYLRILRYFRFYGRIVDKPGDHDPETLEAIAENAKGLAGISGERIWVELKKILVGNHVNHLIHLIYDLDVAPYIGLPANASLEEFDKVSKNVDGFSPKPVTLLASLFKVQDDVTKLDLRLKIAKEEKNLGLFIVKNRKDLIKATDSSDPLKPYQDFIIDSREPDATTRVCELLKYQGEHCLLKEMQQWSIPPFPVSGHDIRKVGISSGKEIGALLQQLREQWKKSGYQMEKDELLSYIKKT
UniProt Q96LD4: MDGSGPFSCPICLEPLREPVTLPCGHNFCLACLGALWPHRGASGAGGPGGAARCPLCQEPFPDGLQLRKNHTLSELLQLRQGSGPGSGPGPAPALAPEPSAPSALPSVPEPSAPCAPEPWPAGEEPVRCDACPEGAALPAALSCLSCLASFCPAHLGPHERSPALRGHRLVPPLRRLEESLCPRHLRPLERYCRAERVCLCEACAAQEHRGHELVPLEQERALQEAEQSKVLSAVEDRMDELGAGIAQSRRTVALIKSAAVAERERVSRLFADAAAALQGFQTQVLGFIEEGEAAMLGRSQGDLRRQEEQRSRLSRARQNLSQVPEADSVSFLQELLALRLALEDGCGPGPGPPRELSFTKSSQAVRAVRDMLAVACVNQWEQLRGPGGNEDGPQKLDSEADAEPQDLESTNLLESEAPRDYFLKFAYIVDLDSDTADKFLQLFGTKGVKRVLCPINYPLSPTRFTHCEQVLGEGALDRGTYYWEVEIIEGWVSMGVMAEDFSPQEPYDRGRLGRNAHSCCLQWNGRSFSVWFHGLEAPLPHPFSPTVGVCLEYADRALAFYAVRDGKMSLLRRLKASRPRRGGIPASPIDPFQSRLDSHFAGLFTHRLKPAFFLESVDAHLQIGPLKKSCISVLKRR
UniProt O95900: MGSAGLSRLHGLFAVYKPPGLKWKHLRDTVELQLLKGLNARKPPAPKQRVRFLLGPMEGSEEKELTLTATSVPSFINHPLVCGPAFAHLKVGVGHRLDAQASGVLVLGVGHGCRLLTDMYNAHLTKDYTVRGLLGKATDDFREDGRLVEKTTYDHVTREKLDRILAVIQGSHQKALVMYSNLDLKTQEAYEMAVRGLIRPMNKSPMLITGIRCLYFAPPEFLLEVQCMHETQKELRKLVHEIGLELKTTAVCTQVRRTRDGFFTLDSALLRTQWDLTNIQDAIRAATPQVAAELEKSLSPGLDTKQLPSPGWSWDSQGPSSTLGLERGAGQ
UniProt Q7Z4L5: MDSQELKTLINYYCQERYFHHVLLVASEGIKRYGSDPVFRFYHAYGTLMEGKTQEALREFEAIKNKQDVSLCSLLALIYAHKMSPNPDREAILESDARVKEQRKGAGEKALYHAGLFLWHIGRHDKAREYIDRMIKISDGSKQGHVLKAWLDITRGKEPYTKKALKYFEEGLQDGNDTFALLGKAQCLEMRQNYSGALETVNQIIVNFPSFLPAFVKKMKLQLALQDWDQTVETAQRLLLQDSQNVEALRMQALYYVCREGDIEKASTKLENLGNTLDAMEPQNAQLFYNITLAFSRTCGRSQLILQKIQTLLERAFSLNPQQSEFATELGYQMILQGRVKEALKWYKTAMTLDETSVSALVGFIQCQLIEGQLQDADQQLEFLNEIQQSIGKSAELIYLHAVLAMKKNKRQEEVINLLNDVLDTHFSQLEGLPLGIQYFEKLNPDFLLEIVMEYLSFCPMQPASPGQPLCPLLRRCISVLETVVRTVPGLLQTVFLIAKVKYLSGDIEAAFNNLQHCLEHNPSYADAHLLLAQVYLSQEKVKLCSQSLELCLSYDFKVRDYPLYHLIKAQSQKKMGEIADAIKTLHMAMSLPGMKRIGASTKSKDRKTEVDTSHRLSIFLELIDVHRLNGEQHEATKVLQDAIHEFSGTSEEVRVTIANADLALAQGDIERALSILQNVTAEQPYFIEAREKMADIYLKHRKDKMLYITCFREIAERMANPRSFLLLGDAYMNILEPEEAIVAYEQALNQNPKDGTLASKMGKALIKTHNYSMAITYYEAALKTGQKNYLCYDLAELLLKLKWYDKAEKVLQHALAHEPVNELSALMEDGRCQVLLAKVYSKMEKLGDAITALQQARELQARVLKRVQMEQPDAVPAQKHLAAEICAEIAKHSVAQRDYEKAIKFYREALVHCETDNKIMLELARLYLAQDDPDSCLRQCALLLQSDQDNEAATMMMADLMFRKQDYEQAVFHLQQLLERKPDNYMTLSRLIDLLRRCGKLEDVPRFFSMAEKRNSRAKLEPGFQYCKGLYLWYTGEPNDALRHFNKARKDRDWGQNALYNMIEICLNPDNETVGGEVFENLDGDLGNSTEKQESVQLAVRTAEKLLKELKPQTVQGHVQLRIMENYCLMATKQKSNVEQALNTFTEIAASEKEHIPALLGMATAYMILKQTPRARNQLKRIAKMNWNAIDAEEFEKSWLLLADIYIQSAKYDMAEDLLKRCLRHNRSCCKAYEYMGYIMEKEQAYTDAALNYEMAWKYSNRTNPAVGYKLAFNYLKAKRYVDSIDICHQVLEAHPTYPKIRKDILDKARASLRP

Some of the results follow.

Compound in the first test: CNC(=O)C1=CC=CC=C1NC2=NC(=NC=C2Cl)NC3=C(C=C(C=C3)N4CCOCC4)OC
As to the kind of experiment: log2 fold change, soluble protein after heating vs DMSO (PISA); higher = thermal stabilisation; K562 lysate, 10 uM; active = over 0.2 and 3.5 SD of the protein, either way, in both replicates (recomputed). An outline of the steps: (§1)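 To prepare the extract, K562 pellets were dounce-homogenised in PBS pH 7.4 with 1 mM MgCl2, giving crude material at 1 mg/mL protein. This was treated with 10 μM compound for 30 min, then heated in aliquots for 3 min over 48°C-58°C before pooling and addition of NP-40 to 0.5% at 4°C. Centrifugation at 21,000xg for 90 min left soluble protein in the supernatant, which TMTpro 16plex LC-MS/MS quantified with equalised channel sums. Results are log-two fold changes in thermal stability compared with solvent controls, from duplicates.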
As to TRMT2B (UniProt Q96GJ1), the log2 fold change was inactive: 0.041.
Still for that read-out and setting: with TSC1 (UniProt Q92574) the figure was inactive: 0.043; with TTLL12 (UniProt V9GY16), inactive: 0.077.
Same read-out and setting: with TRAF3IP2 (UniProt O43734) the figure was inactive: -0.153; with TSPYL2 (UniProt Q9H2G4), inactive: 0.019.
For the target TRIM58 (UniProt Q8NG06), the log2 fold change is inactive: 0.14.
Regarding TSPYL1 (UniProt Q9H0U9), the log2 fold change is inactive: 0.034.
Same read-out and setting: with TRRAP (UniProt Q9Y4A5) the figure was inactive: -0.006.
For TRPM4 (UniProt Q8TD43), the log2 fold change is inactive: -0.163.
Same read-out and setting: under TRPS1 isoform 2 (UniProt Q9UHF7) stands inactive: 0.006.
The same measure, in the same setting: under TRNT1 (UniProt Q96Q11) stands inactive: 0.003; under TRIP10 (UniProt Q15642), inactive: -0.016; under TRIAP1 (UniProt O43715), inactive: 0.073.
The same measure, in the same setting: with TSC22D2 (UniProt O75157) the figure was inactive: 0.006; with TRIM47 (UniProt Q96LD4), inactive: -0.031; with TRPT1 isoform 4 (UniProt Q86TN4), inactive: -0.091.
As to TRIP10 isoform 2 (UniProt Q15642), the log2 fold change was inactive: 0.081.
Still for that read-out and setting: under TTMP isoform 3 (UniProt Q5BVD1) stands inactive: -0.105.
Still for that read-out and setting: with TRUB2 (UniProt O95900) the figure was inactive: 0.218.
As for TRAF3 (UniProt Q13114), the log2 fold change was inactive: 0.084.
On the same count and under the same terms, under TRIM65 (UniProt Q6PJ69) stands inactive: -0.044.
Regarding TSTD2 (UniProt Q5T7W7), the log2 fold change was inactive: -0.053.
Same read-out and setting: under TTC21B (UniProt Q7Z4L5) stands inactive: 0.265; under TSKS (UniProt Q9UJT2), inactive: -0.056; under TRIOBP (UniProt Q9H2D6), inactive: 0.119.
Consider TSPAN3 (UniProt O60637), for which the log2 fold change is inactive: 0.027.
Still for that read-out and setting: with TRIM27 (UniProt P14373) the figure was inactive: -0.006.
Take TRIO (UniProt O75962): the log2 fold change is inactive: 0.019.

Compound in the next test: CNC(=O)c1ccc(Nc2ncc(C(F)(F)F)c(NCc3nccnc3N(C)S(C)(=O)=O)n2)cc1 [defactinib]
The test is described as above. An outline of the steps: as §1
As to TSC1 (UniProt Q92574), the log2 fold change was inactive: 0.046.
On the same count and under the same terms, under TTLL12 (UniProt V9GY16) stands inactive: -0.095; under TRAF3IP2 (UniProt O43734), inactive: -0.085.
Still for that read-out and setting: under TRIM58 (UniProt Q8NG06) stands inactive: -0.025.
TRRAP (UniProt Q9Y4A5): the log2 fold change was inactive: 0.018.
On to TRNT1 (UniProt Q96Q11), for which the log2 fold change was inactive: 0.03.
For TRIP10 (UniProt Q15642), the log2 fold change was inactive: -0.01.
On to TRIAP1 (UniProt O43715), for which the log2 fold change is inactive: 0.104.
Consider TSC22D2 (UniProt O75157), for which the log2 fold change is inactive: 0.029.
For TRIM47 (UniProt Q96LD4), the log2 fold change is inactive: 0.138.
For the target TRPT1 isoform 4 (UniProt Q86TN4), the log2 fold change is inactive: 0.131.
The same measure, in the same setting: with TRIP10 isoform 2 (UniProt Q15642) the figure was inactive: 0.003; with TSEN15, A0A2U3TZM3, inactive: 0.134.
Regarding TTMP isoform 3 (UniProt Q5BVD1), the log2 fold change was inactive: -0.088.
For the target TRUB2 (UniProt O95900), the log2 fold change is inactive: -0.039.
In the case of TRAF3 (UniProt Q13114), the log2 fold change was inactive: -0.149.
Same read-out and setting: with TRIM65 (UniProt Q6PJ69) the figure was inactive: 0.024; with TSTD2 (UniProt Q5T7W7), inactive: 0.038.
Same read-out and setting: under TTC21B (UniProt Q7Z4L5) stands inactive: 0.202; under TRPM7 (UniProt Q96QT4), inactive: -0.01.
The same measure, in the same setting: with TRAF7 (UniProt Q6Q0C0) the figure was inactive: 0.141; with TSKS (UniProt Q9UJT2), inactive: 0.135; with TRIOBP (UniProt Q9H2D6), inactive: 0.
For the target TSPAN3 (UniProt O60637), the log2 fold change is inactive: 0.096.
Still for that read-out and setting: with TRIM27 (UniProt P14373) the figure was inactive: 0.001.
Regarding TRIO (UniProt O75962), the log2 fold change was inactive: 0.011.

Compound in a further test: CNc1nc(-c2ccc3c(N)n[nH]c3c2)cc(N2C[C@@H](C(=O)NC3CCCCC3)CC[C@H]2C)n1
The description is as above. In outline:
as §1
Turning to TRMT2B (UniProt Q96GJ1), the log2 fold change is inactive: -0.005.
On the same count and under the same terms, with TSC1 (UniProt Q92574) the figure was inactive: 0.177; with TTC26, inactive: 0.243.
The same measure, in the same setting: under TSPYL2 (UniProt Q9H2G4) stands inactive: 0.084; under TRIM58 (UniProt Q8NG06), inactive: 0.021; under TSPYL1 (UniProt Q9H0U9), inactive: -0.004.
On the same count and under the same terms, with TRRAP (UniProt Q9Y4A5) the figure was inactive: -0.024; with TRPM4 (UniProt Q8TD43), inactive: 0.14.
TRPS1 isoform 2 (UniProt Q9UHF7): the log2 fold change is inactive: 0.036.
Still for that read-out and setting: under TRNT1 (UniProt Q96Q11) stands inactive: -0.049; under TRIP10 (UniProt Q15642), inactive: 0.013.
Take TRIAP1 (UniProt O43715): the log2 fold change is inactive: -0.054.
Regarding TSC22D2 (UniProt O75157), the log2 fold change was inactive: 0.073.
As for TRIM47 (UniProt Q96LD4), the log2 fold change was inactive: -0.09.
As to TRPT1 isoform 4 (UniProt Q86TN4), the log2 fold change is inactive: 0.
Same read-out and setting: with TRIP10 isoform 2 (UniProt Q15642) the figure was inactive: 0.017.
On the same count and under the same terms, with TSEN15, A0A2U3TZM3 the figure was inactive: -0.16; with TTMP isoform 3 (UniProt Q5BVD1), inactive: 0.36.
Still for that read-out and setting: under TRUB2 (UniProt O95900) stands inactive: 0.258.
TRAF3 (UniProt Q13114): the log2 fold change is inactive: 0.141.
On the same count and under the same terms, under TRIM65 (UniProt Q6PJ69) stands inactive: -0.014; under TSTD2 (UniProt Q5T7W7), inactive: 0.086.
The same measure, in the same setting: with TTC21B (UniProt Q7Z4L5) the figure was inactive: 0.206; with TRPM7 (UniProt Q96QT4), inactive: -0.097.
On to TRAF7 (UniProt Q6Q0C0), for which the log2 fold change is inactive: 0.025.
Regarding TSKS (UniProt Q9UJT2), the log2 fold change was inactive: 0.016.
Regarding TRIOBP (UniProt Q9H2D6), the log2 fold change was inactive: -0.068.
Turning to TSPAN3 (UniProt O60637), the log2 fold change is inactive: 0.091.
Still for that read-out and setting: with TRIO (UniProt O75962) the figure was inactive: 0.021.
